PubChem BioAssay AID1259254 – NCATS, 2017

Purpose: 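Genome-wide screen for genes that prevent DNA re-replication in cancer cells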 (primary screen)
Cell system: human HCT116 colorectal cancer cells
Reagents: single siRNA against human genes
Time to read-out: 3 days
Detection: 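Nuclei stained with Hoechst and imaged; cell-cycle phase assigned by DNA content; G2 share scaled per plate, non-targeting siRNA 0%, GMNN siRNA 100%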
Reading the numbers: G2 robust z-score: higher = more G2 cells, more excess DNA replication
Hit rule: 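Active siRNAs have a G2 robust z of 5 or more median absolute deviations over the median, which in these data means about 38% or higher of GMNN control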
The deposit covers about 59,000 reagents; this is a random part of them. In the full data, about 1,550 (2.6%) are marked active. 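G2 share is only a proxy for re-replication; each gene was hit by three separate siRNAs, and active genes were retested.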 Reagents against one gene are numbered here. Not all columns of the deposit are shown. The record does not give: the amount of reagent.

POLI #1 — G2 robust z-score = 1.2; Outcome = inactive
POLI #2 — G2 robust z-score = -0.717; Outcome = inactive
POLI #3 — G2 robust z-score = -0.341; Outcome = inactive
KRTAP5-6 #1 — G2 robust z-score = 0.801; Outcome = inactive
KRTAP5-6 #2 — G2 robust z-score = -0.666; Outcome = inactive
KRTAP5-6 #3 — G2 robust z-score = -0.56; Outcome = inactive
CNGB3 #1 — G2 robust z-score = 0.945; Outcome = inactive
CNGB3 #2 — G2 robust z-score = -0.692; Outcome = inactive
CNGB3 #3 — G2 robust z-score = 1.12; Outcome = inactive
TMEM52B #1 — G2 robust z-score = -1.06; Outcome = inactive
TMEM52B #2 — G2 robust z-score = -0.542; Outcome = inactive
TMEM52B #3 — G2 robust z-score = -0.359; Outcome = inactive

Reformatted: 2 of the entries above.
| gene symbol | reagent no. | G2 robust z-score | Outcome |
| --- | --- | --- | --- |
| POLI | 1 | 1.2 | inactive |
| POLI | 2 | -0.717 | inactive |
